At least one compound was matched to its structure with a doubt left.
Legend:
MMP-13 mRNA = MMP-13 mRNA expression in bovine primary chondrocytes in alginate beads (real-time PCR, relative to GAPDH); type: cell-based, Bos Taurus; conditions: 1.5 μM, 3 days
ADAMTS-5 mRNA = ADAMTS-5 mRNA expression in bovine primary chondrocytes in alginate beads (real-time PCR, relative to GAPDH); type: cell-based, Bos Taurus; conditions: 1.5 μM, 3 days
PGE2 = PGE2 competitive ELISA in guinea pig serum; type: in vivo; conditions: Hartley guinea pigs, daily dose in diet 31 weeks, W35
Hartley guinea pigs = assay: Spontaneous osteoarthritis in Hartley guinea pigs, knee histology OA score (OARSI); type: in vivo, guinea pig; conditions: daily dose in diet 31 weeks; for OA score: W35, knee histology
Coll 2-1NO2 = Coll 2-1NO2 competitive ELISA in guinea-pig sera (type II collagen breakdown); type: in vivo; conditions: Hartley guinea pigs, daily dose in diet 31 weeks
[1] = absence of IL1a (normal conditions)
[2] = presence of IL1a 10 ng/ml (disease conditions)

OCCc1ccc(O)c(O)c1 [HTY, hydroxytyrosol]
MMP-13 mRNA expression relative to GAPDH (MMP-13 mRNA; [1]): decrease | MMP-13 mRNA expression relative to GAPDH (MMP-13 mRNA; [2]): decrease | ADAMTS-5 mRNA expression relative to GAPDH (ADAMTS-5 mRNA; [1]): decrease | ADAMTS-5 mRNA expression relative to GAPDH (ADAMTS-5 mRNA; [2]): decrease

C/C=C1/[C@H](O[C@@H]2O[C@H](CO)[C@@H](O)[C@H](O)[C@H]2O)OC=C(C(=O)OC)[C@H]1CC(=O)OCCc1ccc(O)c(O)c1 [OLP, Oleuropein]
PGE2 levels in plasma (PGE2): decrease | MMP-13 mRNA expression relative to GAPDH (MMP-13 mRNA; [1]): decrease | MMP-13 mRNA expression relative to GAPDH (MMP-13 mRNA; [2]): decrease | ADAMTS-5 mRNA expression relative to GAPDH (ADAMTS-5 mRNA; [1]): decrease | ADAMTS-5 mRNA expression relative to GAPDH (ADAMTS-5 mRNA; [2]): decrease | OA score (Hartley guinea pigs): greater effect | collagen breakdown measured by levels of coll2-1 NO2 in plasma (Coll 2-1NO2): decrease

C[C@@H]1O[C@@H](OC[C@H]2O[C@@H](Oc3c(-c4ccc(O)c(O)c4)oc4cc(O)cc(O)c4c3=O)[C@H](O)[C@@H](O)[C@@H]2O)[C@H](O)[C@H](O)[C@H]1O [Rutin]
PGE2 levels in plasma (PGE2): non-significant effect | cartilage breakdown in an animal model of OA (Hartley guinea pigs): inhibit | OA score (Hartley guinea pigs): decrease | collagen breakdown measured by levels of coll2-1 NO2 in plasma (Coll 2-1NO2): decrease

Reference: US20160101125A1, “COMPOSITIONS FOR USE IN CARTILAGE BREAKDOWN” (NESTEC S.A., priority 2013, published 2016)
